1 molecule from paper PMC4694719 can be followed below.

No constants are given. Whether binding was seen depends on the method and setting. Some entries that bind do so weakly or less than the wild type. Sequences can lack the tags named with a protein.

In this experiment the target is T1, COP1 SUPPRESSOR 2 (CSU2), full length, LexA fusion (Arabidopsis thaliana) (UniProt F4HVZ5).
T1 sequence: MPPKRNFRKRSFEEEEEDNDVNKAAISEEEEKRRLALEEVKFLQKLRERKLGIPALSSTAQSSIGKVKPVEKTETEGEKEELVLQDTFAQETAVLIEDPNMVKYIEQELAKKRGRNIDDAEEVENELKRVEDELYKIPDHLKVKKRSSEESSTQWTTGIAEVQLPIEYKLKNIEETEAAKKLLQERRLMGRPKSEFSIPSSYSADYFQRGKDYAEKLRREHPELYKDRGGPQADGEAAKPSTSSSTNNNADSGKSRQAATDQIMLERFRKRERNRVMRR
Briefly: two-hybrid; LexA-based yeast two-hybrid system (BD Clontech), LexA-CSU2 fusions and B42AD-COP1 fusions co-transformed into yeast strain EGY48, β-galactosidase activity.

B1: COP1 N282, B42 activation domain fusion (domain or fragment, UniProt P43254 1-282)
chain: MEEISTDPVVPAVKPDPRTSSVGEGANRHENDDGGSGGSEIGAPDLDKDLLCPICMQIIKDAFLTACGHSFCYMCIITHLRNKSDCPCCSQHLTNNQLYPNFLLDKLLKKTSARHVSKTASPLDQFREALQRGCDVSIKEVDNLLTLLAERKRKMEQEEAERNMQILLDFLHCLRKQKVDELNEVQTDLQYIKEDINAVERHRIDLYRARDRYSVKLRMLGDDPSTRNAWPHEKNQIGFNSNSLSIRGGNFVGNYQNKKVEGKAQGSSHGLPKKDALSGSDS
Turning to B1, the binding entry is listed as “binds”.
